At least one compound was matched to its structure with a doubt left. Numbered stars: 1 amine (or outer) side, 2 acyl side, 3 side chain; on linkers, the order of the positions; unused ones are H or OH. Square brackets hold non-standard residues; d marks the D form. Side chains are listed from the residue outwards. Peptide text beside a SMILES is read from it. * marks the point of attachment. ξ: configuration not given here. Ethylenediamine = C(CN[*:2])N[*:1]; dPhg = N[C@@H](C(=O)O)c1ccccc1; ξHyp = O=C(O)C1CC(O)CN1; CO = O=C([*:1])[*:2]; Bn = c1ccc(C*)cc1
Experiments:
hsst5 = target: T1, hsst5 (Homo sapiens, UniProt P35346); assay: competition binding assay on membranes of cells expressing hsst5; conditions: read-out: IC50 hsst5, [125I-Tyr11]-SRIF-14 as radioligand
T1 construct: expressed in transfected cells
Protocol: (§1) The experiments are carried out in triplicate.

Amino acid sequences for entries named in this document (tags omitted). A change or cut given only in a name is not applied to a line headed by its entry.
UniProt P35346: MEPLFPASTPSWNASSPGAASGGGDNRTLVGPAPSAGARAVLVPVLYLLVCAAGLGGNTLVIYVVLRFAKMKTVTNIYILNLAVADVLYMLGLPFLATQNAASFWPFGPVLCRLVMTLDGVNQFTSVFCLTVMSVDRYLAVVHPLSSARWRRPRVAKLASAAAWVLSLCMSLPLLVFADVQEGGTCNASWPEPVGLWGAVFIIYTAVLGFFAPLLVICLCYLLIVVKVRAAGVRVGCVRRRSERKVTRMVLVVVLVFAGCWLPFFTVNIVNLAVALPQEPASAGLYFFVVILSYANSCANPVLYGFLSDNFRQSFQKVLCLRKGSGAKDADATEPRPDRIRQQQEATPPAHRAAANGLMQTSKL
UniProt P32745: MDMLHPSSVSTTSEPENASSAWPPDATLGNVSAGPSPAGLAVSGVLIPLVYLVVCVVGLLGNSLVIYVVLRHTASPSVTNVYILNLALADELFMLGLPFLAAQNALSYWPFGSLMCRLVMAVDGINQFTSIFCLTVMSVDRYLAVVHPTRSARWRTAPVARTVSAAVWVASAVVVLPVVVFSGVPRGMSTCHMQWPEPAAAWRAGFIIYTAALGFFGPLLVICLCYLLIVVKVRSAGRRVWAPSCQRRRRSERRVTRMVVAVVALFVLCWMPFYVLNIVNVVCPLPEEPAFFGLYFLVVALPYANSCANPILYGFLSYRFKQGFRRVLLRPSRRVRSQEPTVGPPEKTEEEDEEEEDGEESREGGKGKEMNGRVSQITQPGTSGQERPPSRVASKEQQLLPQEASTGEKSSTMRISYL
UniProt P31391: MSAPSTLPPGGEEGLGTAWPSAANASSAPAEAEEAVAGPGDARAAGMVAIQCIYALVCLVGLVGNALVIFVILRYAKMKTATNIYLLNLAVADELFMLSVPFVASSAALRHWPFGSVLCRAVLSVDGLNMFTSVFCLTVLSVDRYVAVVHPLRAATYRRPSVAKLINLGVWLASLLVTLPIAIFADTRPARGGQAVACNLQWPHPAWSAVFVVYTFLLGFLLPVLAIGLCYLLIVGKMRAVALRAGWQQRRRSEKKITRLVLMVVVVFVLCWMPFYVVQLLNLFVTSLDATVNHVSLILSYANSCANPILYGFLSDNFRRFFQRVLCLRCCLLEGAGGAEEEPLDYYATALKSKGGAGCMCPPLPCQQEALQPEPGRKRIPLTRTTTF
UniProt P30874: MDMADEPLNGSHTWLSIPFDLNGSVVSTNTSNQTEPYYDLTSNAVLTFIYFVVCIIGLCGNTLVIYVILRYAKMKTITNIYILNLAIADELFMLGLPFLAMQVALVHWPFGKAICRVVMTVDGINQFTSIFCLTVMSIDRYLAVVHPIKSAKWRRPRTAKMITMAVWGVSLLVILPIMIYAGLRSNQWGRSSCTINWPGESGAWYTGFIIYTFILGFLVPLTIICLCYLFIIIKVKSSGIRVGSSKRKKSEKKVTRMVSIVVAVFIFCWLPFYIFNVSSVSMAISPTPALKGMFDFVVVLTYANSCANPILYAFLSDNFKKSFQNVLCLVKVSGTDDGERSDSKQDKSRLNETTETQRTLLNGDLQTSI

hsst3 = target: T2, hsst3 (Homo sapiens, UniProt P32745); assay: competition binding assay on membranes of cells expressing hsst3; conditions: read-out: IC50 hsst3, [125I-Tyr11]-SRIF-14 as radioligand
T2 construct: expressed in transfected cells
Protocol: as §1

hsst4 = target: T3, hsst4 (Homo sapiens, UniProt P31391); assay: competition binding assay on membranes of cells expressing hsst4; conditions: read-out: IC50 hsst4, [125I-Tyr11]-SRIF-14 as radioligand
T3 construct: expressed in transfected cells

hsst2 = target: T4, hsst2 (Homo sapiens, UniProt P30874); assay: competition binding assay on membranes of cells expressing hsst2; conditions: read-out: IC50 hsst2, [125I-Tyr11]-SRIF-14 as radioligand
T4 construct: expressed in transfected cells
Protocol: as §1

Molecule `NCCCC[C@@H]1NC(=O)[C@@H](Cc2c[nH]c3ccccc23)NC(=O)[C@@H](c2ccccc2)NC(=O)C2CC(OC(=O)NCCN)CN2C(=O)[C@H](Cc2ccccc2)NC(=O)[C@H](Cc2ccc(OCc3ccccc3)cc2)NC1=O` (stereo partly drawn) [Compound B, cyclo[{4-(NH2—C2H4—NH—CO—O—)Pro}-DPhg-DTrp-Lys-Tyr(4-Bzl)-Phe]] (cyclo([ξHyp]([CO-Ethylenediamine])[dPhg][dW]KY(Bn)F)) has an IC50 (hsst5) of 0.53 nM, an IC50 (hsst3) of 22 nM and an IC50 (hsst4) of 840 nM. It also gave an IC50 (hsst2) greater than 1000 nM.
